No constants are given. Whether binding was seen depends on the method and setting. Binding seen in cells or lysates may run through a third protein.
Molecular target: RUFY2-FLAG (human)
Assay: co-IP; lysates of HEK293T cells transfected with FLAG-tagged proteins, anti-FLAG magnetic agarose overnight at 4 °C (25 mM Tris-HCl pH 7.4, 0.15 M NaCl, 1 mM EDTA, 1% NP-40, 5% glycerol); immunoblot for endogenous ARL8A and ARL8B

B1: ARL8A, endogenous (protein, UniProt Q96BM9 1-186)
chain: MIALFNKLLDWFKALFWKEEMELTLVGLQYSGKTTFVNVIASGQFNEDMIPTVGFNMRKITKGNVTIKLWDIGGQPRFRSMWERYCRGVSAIVYMVDAADQEKIEASKNELHNLLDKPQLQGIPVLVLGNKRDLPGALDEKELIEKMNLSAIQDREICCYSISCKEKDNIDITLQWLIQHSKSRRS
binding: no binding
